Data published in article doi:10.1101/2021.01.11.426220.
Results are given in words; binding and its absence hold for the method and conditions named. Binding seen in cells or lysates may run through a third protein. A yes stands for co-enrichment or nearness to the bait. Other partners may have been found.

The chains behind the UniProt entries cited, without tags or fusion partners.
UniProt P32495: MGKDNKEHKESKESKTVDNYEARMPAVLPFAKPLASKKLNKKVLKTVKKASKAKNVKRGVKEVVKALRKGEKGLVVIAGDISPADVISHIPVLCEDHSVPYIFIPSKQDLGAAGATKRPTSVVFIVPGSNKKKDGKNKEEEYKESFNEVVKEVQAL
UniProt P33322: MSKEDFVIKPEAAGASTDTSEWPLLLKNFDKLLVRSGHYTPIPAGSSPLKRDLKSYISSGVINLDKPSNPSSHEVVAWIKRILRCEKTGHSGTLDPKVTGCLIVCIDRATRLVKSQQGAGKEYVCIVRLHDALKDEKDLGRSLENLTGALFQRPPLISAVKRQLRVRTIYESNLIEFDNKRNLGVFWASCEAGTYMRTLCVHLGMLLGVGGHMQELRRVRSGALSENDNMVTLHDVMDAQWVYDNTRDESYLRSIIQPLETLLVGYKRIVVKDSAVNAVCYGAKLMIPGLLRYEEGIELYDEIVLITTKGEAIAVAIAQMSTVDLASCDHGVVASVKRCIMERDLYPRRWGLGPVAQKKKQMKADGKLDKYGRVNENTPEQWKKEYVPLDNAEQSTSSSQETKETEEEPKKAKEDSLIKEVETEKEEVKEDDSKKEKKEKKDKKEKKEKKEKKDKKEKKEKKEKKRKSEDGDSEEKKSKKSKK
UniProt P28007: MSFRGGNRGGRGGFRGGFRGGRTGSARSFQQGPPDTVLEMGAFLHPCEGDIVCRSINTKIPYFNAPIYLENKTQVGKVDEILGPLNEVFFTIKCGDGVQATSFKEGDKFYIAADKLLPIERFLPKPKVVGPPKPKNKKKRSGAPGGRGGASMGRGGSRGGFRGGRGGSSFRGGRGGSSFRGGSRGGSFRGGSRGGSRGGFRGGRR

B1: Imp4 (protein, UniProt P53941 1-290)
chain: MLRRQARERREYLYRKAQELQDSQLQQKRQIIKQALAQGKPLPKELAEDESLQKDFRYDQSLKESEEADDLQVDDEYAATSGIMDPRIIVTTSRDPSTRLSQFAKEIKLLFPNAVRLNRGNYVMPNLVDACKKSGTTDLVVLHEHRGVPTSLTISHFPHGPTAQFSLHNVVMRHDIINAGNQSEVNPHLIFDNFTTALGKRVVCILKHLFNAGPKKDSERVITFANRGDFISVRQHVYVRTREGVEIAEVGPRFEMRLFELRLGTLENKDADVEWQLRRFIRTANKKDYL
B2: Mpp10 (protein, UniProt P47083 1-593)
chain: MSELFGVLKSNAGRIILKDPSATSKDVKAYIDSVINTCKNGSITKKAELDEITVDGLDANQVWWQVKLVLDSIDGDLIQGIQELKDVVTPSHNLSDGSTLNSSSGEESELEEAESVFKEKQMLSADVSEIEEQSNDSLSENDEEPSMDDEKTSAEAAREEFAEEKRISSGQDERHSSPDPYGINDKFFDLEKFNRDTLAAEDSNEASEGSEDEDIDYFQDMPSDDEEEEAIYYEDFFDKPTKEPVKKHSDVKDPKEDEELDEEEHDSAMDKVKLDLFADEEDEPNAEGVGEASDKNLSSFEKQQIEIRKQIEQLENEAVAEKKWSLKGEVKAKDRPEDALLTEELEFDRTAKPVPVITSEVTESLEDMIRRRIQDSNFDDLQRRTLLDITRKSQRPQFELSDVKSSKSLAEIYEDDYTRAEDESALSEELQKAHSEISELYANLVYKLDVLSSVHFVPKPASTSLEIRVETPTISMEDAQPLYMSNASSLAPQEIYNVGKAEKDGEIRLKNGVAMSKEELTREDKNRLRRALKRKRSKANLPNVNKRSKRNDVVDTLSKAKNITVINQKGEKKDVSGKTKKSRSGPDSTNIKL

biological target: myc-tagged Nhp2 (S. cerevisiae) (UniProt P32495); assay: affinity purification with mass spectrometry

| binding | Molecule |
| --- | --- |
| binds | Cbf5 (from UniProt P33322 1-483) |
| binds | Gar1 (from UniProt P28007 1-205) |
| binds | B1 |
| binds | B2 |
